In patent publication US9540620B2, “Methods and compositions for modulating G-alpha-Q signaling” (The University of North Carolina at Chapel Hill, priority 2012, dated 2017):
At least one peptide structure holds a part that was inferred or is arguable (an end, a ring closure or a residue).

Assays:
Gαq [1] = target: T1, Gαq (Homo sapiens, UniProt P50148); assay: Activation of p63RhoGEF by Gαq; assay type: biochemical
T1 sequence (P50148 1-359): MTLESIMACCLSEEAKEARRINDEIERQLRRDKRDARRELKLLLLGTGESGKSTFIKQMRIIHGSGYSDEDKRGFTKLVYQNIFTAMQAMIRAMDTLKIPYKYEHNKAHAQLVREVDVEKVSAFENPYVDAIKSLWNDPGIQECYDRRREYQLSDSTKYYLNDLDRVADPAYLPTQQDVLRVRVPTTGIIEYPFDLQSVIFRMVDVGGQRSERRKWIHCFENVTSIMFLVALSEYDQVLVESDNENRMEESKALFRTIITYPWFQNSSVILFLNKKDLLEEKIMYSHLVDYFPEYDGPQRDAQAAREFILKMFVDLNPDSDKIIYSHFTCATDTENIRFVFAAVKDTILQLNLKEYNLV

other Ga subunits = assay: Fluorescence polarization complex formation of TAMRA-27-mer with other Gα subunits
[2] = target: chimeric form of Gαq (Gαq/i); assay: Fluorescence polarization binding of TAMRA-27-mer to chimeric Gαq/i; settings: read-out: Kd for chimeric Gαq/i; dependent on aluminum fluoride
Gαq [3] = target: T1, Gαq; assay: Phospholipase activity of PLC-β3 activated by Gαq, purified proteins reconstituted with lipid vesicles; assay type: biochemical
[4] = target: T2, Gαq activated with aluminum fluoride (Homo sapiens, UniProt P50148); assay: Fluorescence polarization binding of TAMRA-labeled PLC-β3 HTH peptides to Gαq; settings: Gαq-GDP without added aluminum fluoride
T2 sequence (P50148 1-359): T1 sequence (P50148 1-359)
Protocol: FIGS. 6A-C. Quantification of Gαq binding to peptides corresponding to the HTH of PLβ3. […] The structures of PLCβ3 (3 OHM) and p63RhoGEF (2RGN) bound to Gαq were superimposed and a single Gαq is shown. Immediately below is shown the sequence alignment of PLCβ3 (SEQ ID NO:37) and p63RhoGEF (SEQ ID NO:41) encompassing the helix-turn-helix. Underlined residues are labeled in the structure. […] (FIG. 6C) Increasing concentrations of unlabeled PLC-β3 were added to a solution of labeled 25-mer (400 nM) and Gαq (4 μM). KD and IC50 values were derived from three independent experiments.

## CCCC[C@H](NC(=O)[C@H](CC(C)C)NC(=O)[C@H](CO)NC(=O)[C@@H](NC(=O)[C@H](Cc1c[nH]cn1)NC(=O)[C@H](CCCCN)NC(=O)[C@@H](NC(=O)[C@@H]1CCCN1C(=O)[C@H](CC(N)=O)NC(=O)[C@H](C)NC(=O)[C@H](CC(C)C)NC(=O)[C@H](C)NC(=O)[C@H](CCC(=O)O)NC(=O)[C@H](C)NC(=O)[C@H](Cc1ccc(O)cc1)NC(=O)[C@H](CC(=O)O)NC(=O)[C@H](CCC(N)=O)NC(=O)[C@H](Cc1c[nH]cn1)NC(=O)c1ccc2c(c1)C(=O)OC21c2ccc(N(C)C)cc2Oc2cc(N(C)C)ccc21)[C@@H](C)CC)C(C)C)C(=O)N[C@@H](CC(=O)O)C(=O)N[C@@H](CCC(N)=O)C(=O)N[C@@H](CCCNC(=N)N)C(=O)N[C@@H](C)C(=O)N[C@@H](CCCNC(=N)N)C(=O)N[C@@H](CCC(N)=O)C(=O)N[C@@H](CC(C)C)C(=O)N[C@@H](C)C(=O)N[C@@H](C)C(=O)O [TAMRA-27-mer, HQDYAEALANPIKHVSL-Nle-DQRARQLAA]
Gαq [1]
  inhibition of the capacity of Gαq to activate p63RhoGEF: inhibits
Other Ga subunits
  binding to other Gα subunits: did not bind
[2]
  Kd: 1600 nM
Gαq [3]; Gαq activated with aluminum fluoride, lipid vesicles, read-out: IC50, inhibition of phospholipase activity
  IC50: ~1000 nM
Gαq [3]; increasing concentrations of peptide, Gαq 60 nM (FIG. 7A)
  inhibition of Gαq- and PLC-β3-dependent phospholipase activity in vesicles (in words): inhibited
[4]
  complex formation with inactive Gαq-GDP / dependence on aluminum fluoride activation: did not bind
